Some entries share one result that the patent states for a list of compounds.
Key:
Type in all cases: in vivo
[1] = test system: larvae of the mustard beetle (Phaedon cochleariae); test: Phaedon test (PHAECO spray treatment); settings: application rate 500 g/ha, after 7 d
Method: Phaedon Test ([…] Spray Treatment) [table] To produce a suitable preparation of active compound, 1 part by weight of active compound is mixed with the stated amounts of solvents and emulsifier, and the concentrate is diluted with emulsifier-containing water to the desired concentration. Discs of chinese cabbage (Brassica pekinensis) are sprayed with an active compound preparation of the desired concentration and, after drying, populated with larvae of the mustard beetle (Phaedon cochleariae). After the desired period of time, the effect in % is determined 100% means that all beetle larvae have been killed; 0% means that none of the beetle larvae have been killed.

[2] = test system: Boophilus microplus; test: Boophilus microplus test (BOOPMI injection); settings: application rate 20 μg/animal, after 7 d, injection into abdomen
[3] = test system: Lucilia cuprina larvae; test: Lucilia cuprina test (LUCICU); settings: application rate 100 ppm, after 2 d, treated horse meat
Method: Lucilia cuprina Test (LUCICU) Solvent: dimethyl sulphoxide To produce a suitable preparation of active compound, 1 part by weight of active compound is mixed with the stated amount of water, and the concentrate is diluted with water to the desired concentration. Containers containing horse meat treated with the active compound preparation of the desired concentration are populated with Lucilia cuprina larvae. After the desired period of time, the kill in % is determined 100% means that all larvae have been killed; 0% means that none of the larvae have been killed.

[4] = test system: caterpillars of the army worm (Spodoptera frugiperda); test: Spodoptera frugiperda test (SPODFR spray treatment); settings: application rate 500 g/ha, after 7 d
Method: Spodoptera frugiperda Test (SPODFR Spray Treatment) [table] To produce a suitable preparation of active compound, 1 part by weight of active compound is mixed with the stated amounts of solvents and emulsifier, and the concentrate is diluted with emulsifier-containing water to the desired concentration. Discs of maize leaves (Zea mays) are sprayed with an active compound preparation of the desired concentration and, after drying, populated with caterpillars of the army worm (Spodoptera frugiperda). After the desired period of time, the effect in % is determined 100% means that all caterpillars have been killed; 0% means that none of the caterpillars have been killed.

[5] = test system: adult fleas (Ctenocephalides felis); test: Ctenocephalides felis; oral (CTECFE); settings: application rate 20 ppm, after 2 d, oral via citrated cattle blood
[6] = test system: adult Musca domestica; test: Musca domestica test (MUSCDO); settings: application rate 20 ppm, after 2 d, treated sponge

Structure (SMILES)	activity (effect in %, beetle larvae killed) [1]	activity in % (100% = no tick laid fertile eggs) [2]	activity (kill in %, larvae) [3]	activity (effect in %, caterpillars killed) [4]	activity (kill in %, fleas) [5]	activity (kill in %, flies) [6]
COCc1nn(-c2ncccn2)c(N)c1-c1ccc(Cl)c(Cl)c1 [Example 17-37]	≥ 80%	≥ 80%	–	–	–	–
Cc1nn(-c2ncccn2)c(N)c1-c1cccc(Cl)c1 [Example 16-6]	≥ 80%	–	≥ 80%	–	–	–
CCc1nn(-c2ncccn2)c(N)c1-c1ccc(Br)cc1 [Example 16-30]	≥ 80%	≥ 80%	–	–	–	–
Cc1nn(-c2ncccn2)c(NCc2ccccc2)c1-c1ccc(Cl)cc1 [Example 26-46]	≥ 80%	–	≥ 80%	–	–	–
CC(F)c1nn(-c2ncccn2)c(N)c1-c1cc(Cl)cc(Cl)c1 (stereo not drawn) [Example 18-19]	≥ 80%	≥ 80%	≥ 80%	≥ 80%	≥ 80%	–
CC(F)(F)c1nn(-c2ncccn2)c(N)c1-c1cc(Br)cc(Br)c1 [Example 18-230]	≥ 80%	≥ 80%	≥ 80%	≥ 80%	≥ 80%	–
Cc1nn(-c2ncccn2)c(NCC(C)C)c1-c1cccc(Cl)c1 [Example 26-139]	≥ 80%	–	≥ 80%	–	–	–
CC(C)=CCNc1c(-c2ccc(Cl)cc2)c(C)nn1-c1ncccn1 [Example 26-84]	≥ 80%	≥ 80%	≥ 80%	–	–	–
FC(F)(F)c1nn(-c2ncccn2)c(Cl)c1-c1ccc(Cl)c(Cl)c1 [Example 14-18]	≥ 80%	–	≥ 80%	≥ 80%	–	≥ 80%
CC(F)c1nn(-c2ncccn2)c(N)c1-c1ccc(Cl)cc1 (racemic) [Example 18-7]	≥ 80%	≥ 80%	≥ 80%	–	–	–
Nc1c(-c2ccc(OCC3CCCC3)cc2)c(C(F)(F)F)nn1-c1ncccn1 [Example 5-33]	≥ 80%	≥ 80%	≥ 80%	≥ 80%	–	–
Nc1c(-c2ccc(F)c(Cl)c2)c(C(F)(F)F)nn1-c1ncccn1 [Example 1-79, 4-(3-chloro-4-fluorophenyl)-1-pyrimidin-2-y1-3-(trifluoromethyl)-1H-pyrazole-5-amine]	–	≥ 80%	–	–	–	≥ 80%
Nc1c(-c2cc(Cl)cc(C(F)(F)F)c2)c(C(F)(F)F)nn1-c1ncccn1 [Example 3-25, 4-(3-chloro-5-trifluoromethylphenyl)-2-pyrimidin-2-yl-5-trifluoromethyl-2H-pyrazol-3-ylamine]	–	≥ 80%	–	–	≥ 80%	–
Nc1c(-c2ccc(Cl)cc2)c(C(F)(F)C(F)(F)F)nn1-c1ncccn1 [Example 18-45]	≥ 80%	≥ 80%	≥ 80%	≥ 80%	–	–
Cc1nn(-c2ncccn2)c(N)c1-c1ccc(Cl)c(Cl)c1 [Example 16-19]	≥ 80%	≥ 80%	≥ 80%	–	–	–
Cc1nn(-c2ncccn2)c(N)c1-c1ccc(Cl)cc1 [Example 16-7]	≥ 80%	–	≥ 80%	–	–	–
Nc1c(-c2ccc(Cl)c(Cl)c2)c(C(F)(F)F)nn1-c1ncccn1 [Example 1-80, 4-(3,4-dichlorophenyl)-1-pyrimidin-2-yl-3-(trifluoromethyl)-1H-pyrazole-5-amine]	–	≥ 80%	–	–	≥ 80%	≥ 80%
Cc1ccc(-c2c(C(F)(F)F)nn(-c3ncccn3)c2N)cc1 [Example 5-2]	≥ 80%	≥ 80%	≥ 80%	–	–	–
Nc1c(-c2ccc(Br)cc2)c(C(F)(F)F)nn1-c1ncccn1 [Example 1-9, 4-(4-bromophenyl)-1-pyrimidin-2-yl-3-(trifluoromethyl)-1H-pyrazole-5-amine]	–	≥ 80%	–	–	≥ 80%	≥ 80%
Nc1c(-c2ccc(Cl)cc2)c(C(F)(F)F)nn1-c1ncccn1 [Example 1-6, 4-(4-chlorophenyl)-1-pyrimidin-2-yl-3-(trifluoromethyl)-1H-pyrazole-5-amine]	–	≥ 80%	–	–	–	≥ 80%
Cc1nn(-c2ncccn2)c(NCC2CC2)c1-c1ccc(Cl)cc1 [Example 26-65]	≥ 80%	–	≥ 80%	–	–	–
